The assay has as its target 6X HIS tagged AtSUMO1, recombinant (Arabidopsis thaliana) (UniProt P55852). The experiment in a line: SEC; size exclusion profile of recombinant NiNTA purified 6X HIS SUMO proteins on a SD75 column, void volume 40.25 ml; AtSUMO3 and AtSUMO5 after refolding; both purified.

Protein sequences, listed by entry. Tags and fused reporters are not part of them.
UniProt P55852: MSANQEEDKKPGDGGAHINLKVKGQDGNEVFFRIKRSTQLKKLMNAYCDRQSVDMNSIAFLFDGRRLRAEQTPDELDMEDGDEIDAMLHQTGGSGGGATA

One substance from article PMC7461331, “Stability of Begomoviral pathogenicity determinant βC1 is modulated by mutually antagonistic SUMOylation and SIM interactions” (BMC Biology, 2020) can be followed below.

No constants are given. Whether binding was seen depends on the method and setting.

For “6X HIS tagged AtSUMO1, recombinant (from UniProt P55852 1-100)”, the binding entry is “no binding”.
